Common to all, as to test: co-IP
Assay [1] addresses T1, API5 (apoptosis inhibitor protein 5), endogenous in A549 cells (human (endogenous in A549)) (UniProt Q9BZZ5).
T1 sequence: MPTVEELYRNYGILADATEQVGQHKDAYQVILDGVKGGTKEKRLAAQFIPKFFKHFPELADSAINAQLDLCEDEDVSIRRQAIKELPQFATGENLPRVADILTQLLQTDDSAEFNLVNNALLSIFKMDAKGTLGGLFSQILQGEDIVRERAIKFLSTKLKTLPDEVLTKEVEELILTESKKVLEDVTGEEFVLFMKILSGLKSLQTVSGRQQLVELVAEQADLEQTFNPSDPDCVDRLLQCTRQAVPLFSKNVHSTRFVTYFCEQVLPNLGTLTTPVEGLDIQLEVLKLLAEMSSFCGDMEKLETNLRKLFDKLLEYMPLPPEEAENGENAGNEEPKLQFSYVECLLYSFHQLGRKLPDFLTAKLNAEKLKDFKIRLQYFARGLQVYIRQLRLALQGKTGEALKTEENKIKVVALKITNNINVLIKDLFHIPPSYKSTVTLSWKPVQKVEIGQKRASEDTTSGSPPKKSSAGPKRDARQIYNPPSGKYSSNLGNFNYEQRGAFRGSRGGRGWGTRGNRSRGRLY

The chains behind the UniProt entries cited, without tags or fusion partners.
UniProt P03466: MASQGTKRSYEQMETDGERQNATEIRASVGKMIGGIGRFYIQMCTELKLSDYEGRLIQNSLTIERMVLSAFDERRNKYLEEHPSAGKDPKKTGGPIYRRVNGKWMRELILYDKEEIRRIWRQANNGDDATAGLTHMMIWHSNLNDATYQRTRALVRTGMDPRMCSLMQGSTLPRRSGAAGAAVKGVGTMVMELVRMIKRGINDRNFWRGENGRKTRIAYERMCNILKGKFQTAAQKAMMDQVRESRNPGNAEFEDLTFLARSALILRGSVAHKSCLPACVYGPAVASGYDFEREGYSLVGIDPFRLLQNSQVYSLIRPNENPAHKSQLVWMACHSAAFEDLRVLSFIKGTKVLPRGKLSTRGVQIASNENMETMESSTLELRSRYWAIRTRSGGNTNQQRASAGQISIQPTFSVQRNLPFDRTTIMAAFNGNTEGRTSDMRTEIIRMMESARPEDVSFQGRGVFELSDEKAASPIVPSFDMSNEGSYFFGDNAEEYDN
UniProt P03496: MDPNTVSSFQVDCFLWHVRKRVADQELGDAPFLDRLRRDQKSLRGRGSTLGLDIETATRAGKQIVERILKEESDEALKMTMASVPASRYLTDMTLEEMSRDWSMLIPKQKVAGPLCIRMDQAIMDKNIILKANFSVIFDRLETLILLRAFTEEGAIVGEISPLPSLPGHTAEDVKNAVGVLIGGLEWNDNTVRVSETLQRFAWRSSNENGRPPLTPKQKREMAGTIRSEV

Assay [2] concerns the target nucleoprotein (NP) of influenza A virus A/Puerto Rico/8/34 (H1N1; PR8), in infected A549 cells (influenza A virus A/Puerto Rico/8/34 (H1N1; PR8)) (UniProt P03466).
Assay [3] has as its target NS1 of influenza A virus A/Puerto Rico/8/34 (PR8), in infected A549 cells (influenza A virus A/Puerto Rico/8/34 (H1N1; PR8)) (UniProt P03496).

Results are given in words; binding and its absence hold for the method and conditions named. In cells and extracts the contact can be indirect. Some results given as binding are weak or reduced against the parent protein; the word gives no strength.

“nucleoprotein (NP) of influenza A virus A/Puerto Rico/8/34 (H1N1; PR8), in infected A549 cells (from UniProt P03466 1-498)”: in assay [1], the binding result was “binds”.

B1: API5 (apoptosis inhibitor protein 5), endogenous in A549 cells (protein, UniProt Q9BZZ5 1-524)
chain: T1 sequence
With B1, the values for the binding entry in assay [2] and in assay [3] were “binds” and “no binding”, respectively.

The values are drawn from publication PMC4720893.
